For one compound, T1 and polarization percentage results are on record in patent publication US9034928B2, “Methods for metabolic imaging” (IMAGNX, Inc., priority 2011, dated 2015).

For data set [1] the following is noted: in vivo, polarization in 100% water.

Read-outs that look alike come from different tables or passages of the source.

`[2H]C(C(=O)OCC)C([2H])[13C](=O)OCC` (stereo not drawn) [diethyl 1-^13C 2,3-d2 succinate] came in with a T1 in data set [1] of 24 s. Besides, the polarization percentage reads like this: (after systematically changing the pulse sequence) 2.1; (before systematically changing the pulse sequence) 0.19±0.06%.
